Several values for one entry are separate records, joined by “and”; a condition that tells them apart may be missing. Equal values may be shown once. Screen size: about 360,000 compounds; about 7,500 (2.1%) were called active. This list was built around the results that the source calls inconclusive (neither active nor inactive); the mix of calls is not that of the screen. The call rests on the fitted dose curve; in most records, active means well fitted inhibition curve with a large enough effect; inconclusive means small, poorly fitted or top-dose-only effect, or effect the other way; inactive means flat fitted curve, though single readings scatter. Where the call is inconclusive, the potency comes from a doubtful curve fit.
Assay: Nrf2 qHTS screen for inhibitors; further: nearly all actives have a fitted effect of over 60% in size
Settings: A549 ARE-Fluc reporter, luciferase luminescence, 18-24 h; activity change, negative = inhibition: at 46 µM (top of the series)
Procedure, shortened: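 Cells were seeded and rested 2 h, then exposed to compounds for 18-24 h. CellTiter-Fluor was read first as a viability measure. BugLite was added 15 min before the final luminescent read of ARE-luciferase activity in A549 cells.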
On the % scale 0 is the no-effect control and ±100 the full control effect; potency means the concentration at half of the fitted maximal effect.

Row | SMILES | Potency | activity change, negative = inhibition
1 | COc1ccc(-c2nnc(SCC(=O)Nc3c(C)cccc3C)nc2-c2ccc(OC)cc2)cc1 | inconclusive: 23.1 µM [falling, partial curve] | –
2 | COc1cccc(-n2nc(C(=O)N3CC(C)CC(C)C3)c3ccccc3c2=O)c1 (centres undefined) | inconclusive: 3.26 µM [falling, single point] | –
3 | O=C(Cn1nc(-c2ccccc2)ccc1=O)N1CCCCC1 | inconclusive: 0.411 µM [falling, full curve, poor fit] | –
4 | N#CCC(=O)N/N=C/c1cn(Cc2ccc(Cl)c(Cl)c2)c2ccccc12 | inconclusive: 20.6 µM [falling, partial curve] | –
5 | Cc1nc2cc(-c3cccc(F)c3)nn2c(C)c1CCC(=O)NC(C)c1ccccc1 (centres undefined) | active: 3.66 µM | –
6 | Cc1ccc(C)c(Nc2nc3ccccc3n3cnnc23)c1 | – | inactive: -9.04%
7 | O=C(Nc1ccccc1Br)c1cc(CN2CCCC2)on1 | inconclusive: 6.51 µM [falling, single point] | –
8 | Cn1c(=O)c2[nH]c(CN3CCN(Cc4ccccc4)CC3)nc2n(C)c1=O | inconclusive: 2.59 µM [activator, partial curve] | –
9 | COc1ccccc1OC(=O)C1CC(=O)N(c2ccc(Cl)cc2)C1 (centres undefined) | inconclusive: 3.26 µM [falling, partial curve, poor fit] | –
10 | Brc1ccc2c(c1)C(c1ccc(N3CCOCC3)cc1)=NNC(c1cccs1)=N2 | inconclusive: 9.2 µM [falling, partial curve, poor fit] | –
11 | O=C(Nc1ccc(-c2nc3cccnc3s2)cc1)c1cccnc1Cl | inconclusive: 1.3 µM [activator, partial curve] | –
12 | CCc1ccc(CNC(=O)c2ccc(-c3nc(CSc4ccc(C)cc4)c(C)o3)cc2)cc1 | inconclusive: 25.9 µM [activator, single point] | –
13 | O=C(Nc1ccc(Oc2cccnc2)cc1)C1CCN(Cc2ccccc2F)CC1 | inconclusive: 32.6 µM [falling, partial curve, poor fit] | –
14 | Cc1cc(C)n2nc(SCC(=O)N3CCCC3)nc2n1 | inconclusive: 14.6 µM [activator, partial curve, poor fit] | –
15 | O=C(CSc1oc(-c2ccc(F)cc2)nc1S(=O)(=O)c1ccccc1)NC1CCCCC1 | – | inactive: 2.57% [at 9.27 µM]
16 | COc1cccc(OC(=O)CSc2nnc(-c3cccs3)o2)c1 | inconclusive: 29.1 µM [activator, single point] | –
17 | Cc1cc2nn(-c3ccc(F)cc3)nc2cc1NC(=O)c1cccc([N+](=O)[O-])c1C | inconclusive: 20.6 µM [activator, partial curve] | –
18 | CCCCn1c(N)c(N(CC(C)C)C(=O)c2ccc(-c3ccc(Cl)cc3)o2)c(=O)[nH]c1=O | – | inactive: 16%
19 | O=C(O)c1nn(CC(=O)N(C2CCCCC2)C2CCCCC2)c(=O)c2ccccc12 | inconclusive: 16.4 µM [falling, partial curve, poor fit] | –
20 | COC(=O)/C=C1\N/C(=N\c2nc(C)cc(C)n2)N(c2ccccc2)C1=O | – | inactive: 1.76%
21 | COc1ccc(NC(=S)NCCSc2ccc(C)cc2)c(OC)c1 | inconclusive: 14.6 µM [falling, single point] | –
22 | CCOc1ccccc1C(=O)N/N=C/c1c[nH]c2ccccc12 | inconclusive: 32.6 µM [activator, partial curve, poor fit] | –

Row | SMILES | Potency | activity change, negative = inhibition
23 | Cc1ccc(S(=O)(=O)c2ccc(C)cc2)cc1 | – | inactive: -0.604%
24 | CC(C)CC(=O)Nc1nnc(-c2ccco2)s1 | inconclusive: 1.3 µM [activator, full curve] | –
25 | O=C1c2cc(Cl)ccc2-c2c(O)cc(Cl)cc21 | – | inactive: 3.94%
26 | Cc1csc(NC(=O)CSc2nnnn2C)n1 | inconclusive: 18.4 µM [activator, partial curve] | –
27 | CC(=O)Nc1ccc(Nc2nc3c(S(=O)(=O)c4cc(C)ccc4C)nnn3c3ccsc23)cc1 | – | inactive: 9.74%
28 | CCCCC(=O)Nc1cccc(-c2nn3c(C)nnc3s2)c1 | inconclusive: 18.4 µM [falling, single point] | –
29 | Clc1cccc(-c2nc3ccccn3c2Nc2ccc3c(c2)OCCO3)c1 | inconclusive: 23.1 µM [falling, single point] | –
30 | COc1ccc(N2C(=O)CSC23C(=O)N(CC(=O)Nc2ccccc2F)c2ccccc23)cc1 (centres undefined) | inconclusive: 1.84 µM [falling, full curve, poor fit] | –
31 | CC(C)C1N=C2c3ccccc3N=C(SCc3cc(=O)n4cc(Cl)ccc4n3)N2C1=O (centres undefined) | inconclusive: 32.6 µM [falling, single point] | –
32 | CCC(c1nnnn1Cc1ccc(OC)cc1)N1CCN(c2ccc(OC)cc2)CC1 (centres undefined) | inconclusive: 8.2 µM [falling, partial curve, poor fit] | –
33 | COC(=O)C1=C(C(=O)OC)[C@]2([C@H]3CCCCN[C@@H](Cc4ccccc4)C(=O)N3Cc3ccccc3)C=C[C@H]1O2 | active: 23.1 µM | –
34 | Cc1ccc(Cl)cc1N(C)C(=O)c1cc2c(Cl)nc3ccccc3c2s1 | inconclusive: 2.06 µM [activator, partial curve] | –
35 | NS(=O)(=O)c1ccc(N=Nc2c(-c3ccccc3)[nH]n(-c3nc(-c4ccccc4)cs3)c2=O)cc1 | active: 4.61 µM | –
36 | COc1ccc2nc(NC(=O)C3CCN(S(=O)(=O)c4cccc5nsnc45)CC3)sc2c1 | active: 16.4 µM | –
37 | CCOC(=O)c1c(CN2CCN(C)CC2)n(C)c2cc(Br)c(OC)cc12 | – | inactive: -27.6%
38 | CN(Cc1ccccc1)C(=O)c1ccc([N+](=O)[O-])o1 | – | inactive: -19.6%
39 | CC1CCCC(C)N1C(=O)CN1C(=O)NC2(CCOc3ccccc32)C1=O (centres undefined) | inconclusive: 4.61 µM [falling, partial curve, poor fit] | –
40 | O=C(C1CCC(Cn2c(=O)c3sccc3n(Cc3cccc(F)c3)c2=O)CC1)N1CCOCC1 (centres undefined) | – | inactive: -4.19%
41 | O=C(NCc1ccc(Cl)cc1)c1ccc(CS(=O)Cc2cccc(Cl)c2)o1 (centres undefined) | inconclusive: 14.6 µM [falling, partial curve, poor fit] | –
42 | CN(CC(=O)Nc1ccc(OC(F)(F)F)cc1)C(=O)c1ccc(N2CCCC2=O)cc1 | active: 2.91 µM | –
43 | CCOc1ccc(CCNC(=O)COC(=O)c2oc3ccccc3c2COC)cc1OCC | – | inactive: 6.82%
44 | CCN(CC)C(=O)[C@H]1C[C@H](CC(=O)NCc2ccco2)C(=O)N2CCc3c([nH]c4cc(-c5ccco5)ccc34)[C@]12C | inconclusive: 29.1 µM [falling, single point] | –

3 of the compounds above, in CSV form:
Row,SMILES,Potency,"activity change, negative = inhibition"
28,CCCCC(=O)Nc1cccc(-c2nn3c(C)nnc3s2)c1,"inconclusive: 18.4 µM [falling, single point]",–
29,Clc1cccc(-c2nc3ccccn3c2Nc2ccc3c(c2)OCCO3)c1,"inconclusive: 23.1 µM [falling, single point]",–
30,COc1ccc(N2C(=O)CSC23C(=O)N(CC(=O)Nc2ccccc2F)c2ccccc23)cc1 (centres undefined),"inconclusive: 1.84 µM [falling, full curve, poor fit]",–

Remaining list, next part:

Row | SMILES | Potency | activity change, negative = inhibition
45 | CCN(CC)S(=O)(=O)c1cc(NC(=O)C2CCN(c3ncnc4sc(C)c(C)c34)CC2)ccc1Cl | active: 11.6 µM | –
46 | O=C(NCCN1CCOCC1)c1cc(-c2ccc(Cl)cc2Cl)on1 | inconclusive: 3.66 µM [activator, partial curve, poor fit] | –
47 | CCOc1ccc(N(C(=O)CNC(=O)c2ccco2)C(C(=O)NC2CCCC2)c2ccco2)cc1 (centres undefined) | – | inactive: 4.88%
48 | Cc1cc(Oc2ccc(Cl)cc2)nc(SCC(=O)c2ccccc2)n1 | inconclusive: 20.6 µM [falling, single point] | –
49 | O=C(Nc1sc2c(c1C(=O)O)CCCC2)c1cccs1 | inconclusive: 2.59 µM [falling, full curve] | –
50 | Cc1ccc(NC(=O)Cn2cc(C(=O)c3ccco3)c3ccccc32)cc1C | inconclusive: 29.1 µM [falling, single point] | –
51 | COc1ccc(N(C)C(=O)c2ccc3nc(-c4ccccc4)c(-c4ccccc4)nc3c2)cc1 | inconclusive: 32.6 µM [falling, single point] | –
52 | c1ccc2c(SCc3cn4ccccc4n3)nncc2c1 | inconclusive: 23.1 µM [falling, partial curve, poor fit] | –
53 | COCCNC(=O)Nc1ccc2nc(-c3cccs3)c(-c3cccs3)nc2c1 | inconclusive: 20.6 µM [falling, single point] | –
54 | CCC(C(=O)O)n1nc(-c2ccccc2)c2cc(Cl)ccc21 (centres undefined) | inconclusive: 23.1 µM [falling, partial curve, poor fit] | –
55 | COc1ccc(S(=O)(=O)N2CCC(N3CCN(c4ccccc4OC)CC3)CC2)cc1 | – | inactive: 4.15%
56 | CC1=C(C(=O)Nc2cccnc2)C(c2ccncc2)n2nnnc2N1 (centres undefined) | inconclusive: 4.61 µM [falling, partial curve, poor fit] | –
57 | Cc1cc(OC(C)C(=O)N2CCC(c3nc4ccccc4o3)CC2)ccc1Cl (centres undefined) | inconclusive: 25.9 µM [falling, partial curve] | –
58 | Cc1cccc(N2CCN(C(=O)NC3CCCCC3)CC2)c1C | inconclusive: 10.3 µM [falling, partial curve, poor fit] | –
59 | COc1ccccc1NC(=O)CSc1ccc(-c2ccccn2)nn1 | inconclusive: 20.6 µM [falling, single point] and inconclusive: 29.1 µM [falling, single point] | –
60 | O=C(OC1CO[C@H]2O[C@@H]1[C@H](OC(=O)c1ccccc1)[C@H]2OC(=O)c1ccccc1)c1ccccc1 (some centres undefined) | – | inactive: -2.4%
61 | Cc1cc(S(=O)(=O)Nc2ccc(F)cc2)c(C)s1 | inconclusive: 20.6 µM [falling, single point] | –
62 | CC1(C)CC(=O)C=C(C(=O)NC2CCCc3c2cnn3-c2cc(F)cc(F)c2)O1 (centres undefined) | inconclusive: 11.6 µM [falling, partial curve, poor fit] | –
63 | Cc1cccc(N2CCN(C(=O)c3cccc(N4C(=O)C5C6C=CC(C6)C5C4=O)c3)CC2C)c1 (centres undefined) | inconclusive: 20.6 µM [falling, single point] | –
64 | COc1ccc(S(=O)(=O)Cc2ccc(C(=O)N3CCN(c4cccc(C)c4C)CC3)o2)cc1 | inconclusive: 29.1 µM [falling, single point] | –
